Measured values as given in US4600788A, “4'-flavonecarboxylic acids and pharmaceutically acceptable derivatives their preparation, and their application” (Societe Cortial, S.A., priority 1983, dated 1986).

Test system: rats
Assay: Neuropathy with streptozotocin: sorbitol and inositol levels in sciatic nerves, glycemia
Format: in vivo
Conditions: 100 mg/kg/d
Experimental: Four batches of 10 rats weighing about 200 g were treated from D-2 to D+3 with a gummy julep of the product to be tested. On D O the animals received an i.p. injection of 100 mg/kg of streptozotocin dissolved in a citrate buffer. The glycemia of the rats was determined 24 hours and 3 days after injection of the streptozotocin and the sciatic nerves were removed to determine the sorbitol and inositol levels. […] COR 35 01 had no effect on the glycemia of the animals.

## CCCc1c(-c2ccc(C(=O)O)cc2)oc2cc(NS(C)(=O)=O)ccc2c1=O [COR 35 01, 7-methanesulfonamido-3-propyl-4'-flavonecarboxylic acid]
  effect on the glycemia of the animals: no effect
D1, control 4.03±0.89
  glycemia (D1): 4.07±1.03
D2, control 5.44±0.90
  glycemia (D2): 6.30 ± 0.97
